Data published in article doi:10.1101/2023.05.05.539554.

T1: LST8 fused to the promiscuous biotin ligase TurboID with a triple haemagglutinin (HA) tag, LST8-TID (UniProt Q9LV27)
T1 sequence: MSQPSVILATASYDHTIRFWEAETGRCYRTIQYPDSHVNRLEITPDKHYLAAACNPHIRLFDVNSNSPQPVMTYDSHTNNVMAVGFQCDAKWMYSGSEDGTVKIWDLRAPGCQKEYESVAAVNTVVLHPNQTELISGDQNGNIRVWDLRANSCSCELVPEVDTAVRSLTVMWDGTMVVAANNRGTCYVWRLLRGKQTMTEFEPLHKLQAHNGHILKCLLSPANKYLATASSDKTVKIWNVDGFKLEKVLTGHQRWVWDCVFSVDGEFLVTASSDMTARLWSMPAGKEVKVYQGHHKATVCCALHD

T2: LST8 fused to the promiscuous biotin ligase TurboID with a triple haemagglutinin (HA) tag, TID-LST8 (UniProt Q9LV27)
T2 sequence: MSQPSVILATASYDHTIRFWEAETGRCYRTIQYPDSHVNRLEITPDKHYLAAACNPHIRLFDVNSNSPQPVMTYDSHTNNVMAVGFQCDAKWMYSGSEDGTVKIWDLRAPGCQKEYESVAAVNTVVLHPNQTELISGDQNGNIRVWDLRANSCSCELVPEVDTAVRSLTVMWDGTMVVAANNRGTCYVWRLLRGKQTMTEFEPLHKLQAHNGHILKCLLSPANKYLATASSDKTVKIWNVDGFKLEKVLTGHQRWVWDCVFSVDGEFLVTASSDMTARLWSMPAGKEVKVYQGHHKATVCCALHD

B1: RSH3_(39-221)-GFP (domain or fragment, UniProt Q9SYH1 39-221)
chain: SSASSSTSSPTIGGLSLLFSGASVKSSSSSSSSHPSVGEELASIRHDRSEDRTLSGSFCYSPSKFIGSSYLKRDHQSPVSVLHGPISSGNSPPMRISRDRNLDGGSALRVGSSRLFNGFVRKAIGSCVDYDTDSVLVDEQLPFTMDDGFEGERRQPYARDLLRRAQLKHKIFEDESVIKAFYE

Experiments:
Assay in all cases: proximity labelling
[1] = target: T1, LST8 fused to the promiscuous biotin ligase TurboID with a triple haemagglutinin (HA) tag, LST8-TID
[2] = target: T2, LST8 fused to the promiscuous biotin ligase TurboID with a triple haemagglutinin (HA) tag, TID-LST8
[3] = target: T2, LST8 fused to the promiscuous biotin ligase TurboID with a triple haemagglutinin (HA) tag, TID-LST8; remark: listed apart in the source
[4] = target: T2, LST8 fused to the promiscuous biotin ligase TurboID with a triple haemagglutinin (HA) tag, TID-LST8; remark: listed apart in the source

Molecule | binding [1] | binding [2] | binding [3] | binding [4]
RSH3-GFP (from UniProt Q9SYH1) (enzyme) | binds | binds | binds | 
B1 |  |  |  | binds

Where two headings read alike, the source gives them in different places. No constants are given. Whether binding was seen depends on the method and setting. In cells and extracts the contact can be indirect. Here binding means that the protein was enriched with, or labelled near, the bait; the list need not be complete. Where a sequence is shown, tags or fusion partners need not be part of it.
